Measurements as given in article PMC7099064.
No constants are given. Whether binding was seen depends on the method and setting. Binding seen in cells or lysates may run through a third protein. A yes stands for co-enrichment or nearness to the bait. Other partners may have been found. Where a sequence is shown, tags or fusion partners need not be part of it.

The chains behind the UniProt entries cited, without tags or fusion partners.
UniProt Q6Q629: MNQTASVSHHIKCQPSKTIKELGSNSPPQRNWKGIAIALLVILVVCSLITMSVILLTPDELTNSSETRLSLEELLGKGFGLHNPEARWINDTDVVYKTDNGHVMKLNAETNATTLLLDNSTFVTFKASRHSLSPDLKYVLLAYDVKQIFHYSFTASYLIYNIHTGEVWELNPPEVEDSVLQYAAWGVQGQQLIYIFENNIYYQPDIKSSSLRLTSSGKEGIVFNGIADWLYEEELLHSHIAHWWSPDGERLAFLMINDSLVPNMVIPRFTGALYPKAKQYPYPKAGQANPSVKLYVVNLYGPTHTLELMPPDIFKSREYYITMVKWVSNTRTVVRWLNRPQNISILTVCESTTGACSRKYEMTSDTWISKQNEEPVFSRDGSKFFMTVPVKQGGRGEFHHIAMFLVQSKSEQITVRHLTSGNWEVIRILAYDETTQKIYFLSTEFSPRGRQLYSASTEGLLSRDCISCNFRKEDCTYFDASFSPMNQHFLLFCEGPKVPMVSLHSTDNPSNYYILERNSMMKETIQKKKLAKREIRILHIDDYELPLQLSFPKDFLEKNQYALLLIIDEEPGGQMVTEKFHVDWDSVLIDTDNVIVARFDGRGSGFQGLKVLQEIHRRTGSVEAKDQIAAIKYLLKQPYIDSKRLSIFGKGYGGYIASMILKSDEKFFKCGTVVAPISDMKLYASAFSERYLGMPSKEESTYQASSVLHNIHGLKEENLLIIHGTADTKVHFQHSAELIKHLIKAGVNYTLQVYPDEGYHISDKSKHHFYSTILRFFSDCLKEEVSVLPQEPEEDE

T1: TAP-tagged Kv4.2 (lentivirally expressed in cultured hippocampal neurons) (UniProt Q9NZV8)
T1 sequence: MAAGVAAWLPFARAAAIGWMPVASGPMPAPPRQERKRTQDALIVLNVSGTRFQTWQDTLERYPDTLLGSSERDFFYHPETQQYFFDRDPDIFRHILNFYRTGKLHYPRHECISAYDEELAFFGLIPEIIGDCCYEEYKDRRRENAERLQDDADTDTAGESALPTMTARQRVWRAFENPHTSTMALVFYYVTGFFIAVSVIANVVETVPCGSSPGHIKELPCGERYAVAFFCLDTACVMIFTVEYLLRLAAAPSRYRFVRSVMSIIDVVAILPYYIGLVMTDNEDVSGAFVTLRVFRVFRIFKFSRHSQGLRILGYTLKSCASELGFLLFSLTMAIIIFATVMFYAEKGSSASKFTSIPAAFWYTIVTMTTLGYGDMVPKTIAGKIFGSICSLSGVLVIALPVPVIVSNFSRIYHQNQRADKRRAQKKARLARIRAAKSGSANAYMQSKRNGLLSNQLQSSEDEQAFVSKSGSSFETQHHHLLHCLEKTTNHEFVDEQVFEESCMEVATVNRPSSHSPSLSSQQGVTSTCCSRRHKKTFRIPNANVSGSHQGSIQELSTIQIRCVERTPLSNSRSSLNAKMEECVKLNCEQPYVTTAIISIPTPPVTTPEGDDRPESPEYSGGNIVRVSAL

B1: K+ channel interacting protein 2 (KChIP2), endogenous in cultured hippocampal neurons (protein, UniProt Q9JM59 1-270)
chain: MRGQGRKESLSESRDLDGSYDQLTGHPPGPSKKALKQRFLKLLPCCGPQALPSVSETLAAPASLRPHRPRPLDPDSVEDEFELSTVCHRPEGLEQLQEQTKFTRRELQVLYRGFKNECPSGIVNEENFKQIYSQFFPQGDSSNYATFLFNAFDTNHDGSVSFEDFVAGLSVILRGTIDDRLSWAFNLYDLNKDGCITKEEMLDIMKSIYDMMGKYTYPALREEAPREHVESFFQKMDRNKDGVVTIEEFIESCQQDENIMRSMQLFDNVI
B2: K+ channel interacting protein 3 (KChIP3), endogenous in cultured hippocampal neurons (protein, UniProt Q9JM47 1-256)
chain: MQRTKEAMKASDGSLLGDPGRIPLSKREGIKWQRPRFTRQALMRCCLIKWILSSAAPQGSDSSDSELELSTVRHQPEGLDQLQAQTKFTKKELQSLYRGFKNECPTGLVDEDTFKLIYSQFFPQGDATTYAHFLFNAFDADGNGAIHFEDFVVGLSILLRGTVHEKLKWAFNLYDINKDGYITKEEMLAIMKSIYDMMGRHTYPILREDAPLEHVERFFQKMDRNQDGVVTIDEFLETCQKDENIMSSMQLFENVI
B3: K+ channel interacting protein 4 (KChIP4), endogenous in cultured hippocampal neurons (protein, UniProt Q99MG9 1-250)
chain: MNVRRVESISAQLEEASSTGGFLYAQNNTKRSIKERLMKLLPCSAAKTSSPAIQNSVEDELEMATVRHRPEALELLEAQSKFTKKELQILYRGFKNECPSGVVNEETFKEIYSQFFPQGDSTTYAHFLFNAFDTDHNGAVSFEDFIKGLSILLRGTVQEKLNWAFNLYDINKDGYITKEEMLDIMKAIYDMMGKCTYPVLKEDAPRQHVETFFQKMDKNKDGVVTIDEFIESCQKDENIMRSMQLFENVI

Biological target: T1, TAP-tagged Kv4.2 (lentivirally expressed in cultured hippocampal neurons)
Test: affinity purification with mass spectrometry; TAP-tagged Kv4.2 expressed by lentivirus in cultured hippocampal neurons, harvested at DIV14, TAP purification kit (Agilent), SDS-PAGE, in-gel trypsin digestion, MS; control IRES-GFP lentivirus

Molecule	binding
dipeptidyl peptidase 10 (DPP10), endogenous in cultured hippocampal neurons (from UniProt Q6Q629 1-796)	binds
B1	binds
B2	binds
B3	binds
